Measurements reported in paper doi:10.1101/2025.04.07.647595.

Experiments:
Sxl-dRBD3 = biological target: T1, Sxl-dRBD3 (UniProt P19339); assay: ITC; conditions: 298 K, value only in figure, residues 123-294
T1 sequence (looked up): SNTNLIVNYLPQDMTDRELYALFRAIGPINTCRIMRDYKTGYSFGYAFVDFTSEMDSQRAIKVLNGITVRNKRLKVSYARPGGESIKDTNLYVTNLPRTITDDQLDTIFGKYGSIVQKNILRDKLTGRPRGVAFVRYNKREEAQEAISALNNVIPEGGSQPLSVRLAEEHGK

Sxl-dRBD5 = biological target: T2, Sxl-dRBD5 (UniProt P19339); assay: ITC; conditions: 298 K, tighter than dRBD3, value only in figure, residues 122-305
T2 sequence (looked up): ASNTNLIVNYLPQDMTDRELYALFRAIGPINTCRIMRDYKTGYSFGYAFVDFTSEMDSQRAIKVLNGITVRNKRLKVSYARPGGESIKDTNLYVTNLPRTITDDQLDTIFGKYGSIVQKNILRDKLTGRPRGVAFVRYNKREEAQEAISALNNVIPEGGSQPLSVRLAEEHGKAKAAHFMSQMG

Measured: binding result

UUUUUUUUUU [U10-mer RNA]
binds: Sxl-dRBD3; 50 mM KCl | Sxl-dRBD3; 150 mM KCl | Sxl-dRBD5; 50 mM KCl | Sxl-dRBD5; 150 mM KCl

The exact form of at least one protein or probe is not confirmed. At least one verdict was read from the data and is not stated in words by the source. Where a protein sequence is shown, tags need not be part of it.
